Taken from: PubChem BioAssay AID1224826 (NIAID, 2016)
The deposit covers about 17,000 reagents; below is an unselected part. About 1,110 of them (6.6%) were called active. 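Active means lowered or raised reporter signal; replicate intensities are raw and not normalised per plate.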 No sequences are given here.

- Assay: 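Genes that change LPS-induced Tnf promoter activity in mouse macrophages when knocked down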 (primary screen)
- Cell system: RAW264.7 G9 macrophages from mouse bearing reporters for p65 (GFP) and the Tnf promoter (mCherry)
- Reagent: siRNA pool against mouse genes, 100 nM
- Duration: 16 h of LPS stimulation, after 2 days of siRNA transfection
- Conditions: bacterial lipopolysaccharide (Salmonella minnesota R595), 10 ng/ml
- Read-out: 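Imaged Tnf reporter mCherry in nuclei, minus background, normalised per plate to the median and expressed as robust z-scores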
- Reading the numbers: Tnf reporter robust z-score: higher = stronger Tnf promoter reporter signal after LPS; Tnf reporter intensity: higher = stronger Tnf promoter reporter signal
- Active means: 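Called active when robust z-score is at most -1.3, matching the median of the Tlr4 knock-down control, or over 3; control wells and wells with under 50 cells never active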
- Meaning of the calls: active = Tnf reporter clearly lowered or raised; inactive = no clear change in Tnf reporter

The first 2 entries, ahead of the listing:
no.	Target gene	Tnf reporter robust z-score	fewer than 50 cells in well	Tnf reporter intensity, replicate 1	Tnf reporter intensity, replicate 2	Call
1	Arhgap23 (Rho GTPase activating protein 23)	-0.97	enough cells in well	120	108	inactive
2	Stradb (STE20-related kinase adaptor beta)	0.11	enough cells in well	159	202	inactive

The list itself, from the first entry:
no.	Target gene	Tnf reporter robust z-score	fewer than 50 cells in well	Tnf reporter intensity, replicate 1	Tnf reporter intensity, replicate 2	Call
1	Arhgap23 (Rho GTPase activating protein 23)	-0.97	enough cells in well	120	108	inactive
2	Stradb (STE20-related kinase adaptor beta)	0.11	enough cells in well	159	202	inactive
3	Ghrl (ghrelin)	-0.89	enough cells in well	191	114	inactive
4	Spaca4 (sperm acrosome associated 4)	2.32	enough cells in well	374	110	inactive
5	Tmprss3 (transmembrane protease, serine 3)	0.35	enough cells in well	243	161	inactive
6	6820408C15Rik (RIKEN cDNA 6820408C15 gene)	0.77	enough cells in well	249	214	inactive
7	Nupr1 (nuclear protein transcription regulator 1)	2.4	enough cells in well	355	259	inactive
8	Or6c38 (olfactory receptor family 6 subfamily C member 38)	0.03	enough cells in well	120	92.6	inactive
9	Hacl2 (2-hydroxyacyl-CoA lyase 2)	-0.62	enough cells in well	160	144	inactive
10	Ednra (endothelin receptor type A)	-0.4	enough cells in well	163	296	inactive
11	Trim33 (tripartite motif-containing 33)	-0.19	enough cells in well	199	233	inactive
12	Nedd9	1.31	enough cells in well	276	182	inactive
13	Suox (sulfite oxidase)	-0.6	enough cells in well	250	148	inactive
14	Calm2 (calmodulin 2)		fewer than 50 cells per well; well left out of calls	43.5	98.9	inactive
15	Ptprv (protein tyrosine phosphatase receptor type V)	-0.67	enough cells in well	105	77.6	inactive
16	Or8c11 (olfactory receptor family 8 subfamily C member 11)	0.07	enough cells in well	172	132	inactive
17	Atp8a2	0.05	enough cells in well	160	147	inactive
18	Taok1 (TAO kinase 1)	0.19	enough cells in well	184	61.6	inactive
19	Gfpt2 (glutamine fructose-6-phosphate transaminase 2)	-1.31	enough cells in well	136	88.3	active
20	Dapk1 (death associated protein kinase 1)		fewer than 50 cells per well; well left out of calls	95.5	87.7	inactive
21	Cog2 (component of oligomeric golgi complex 2)	-1.31	enough cells in well	75.8	120	active
22	Fdx1 (ferredoxin 1)	-0.67	enough cells in well	167	190	inactive
23	Timm21 (translocase of inner mitochondrial membrane 21)	1.1	enough cells in well	202	233	inactive
24	Endov (endonuclease V)	1.66	enough cells in well	271	235	inactive
